{"sequences": {"note": "The chains behind the UniProt entries cited, without tags or fusion partners.", "UniProt Q9GZU1, whole entry, looked up": "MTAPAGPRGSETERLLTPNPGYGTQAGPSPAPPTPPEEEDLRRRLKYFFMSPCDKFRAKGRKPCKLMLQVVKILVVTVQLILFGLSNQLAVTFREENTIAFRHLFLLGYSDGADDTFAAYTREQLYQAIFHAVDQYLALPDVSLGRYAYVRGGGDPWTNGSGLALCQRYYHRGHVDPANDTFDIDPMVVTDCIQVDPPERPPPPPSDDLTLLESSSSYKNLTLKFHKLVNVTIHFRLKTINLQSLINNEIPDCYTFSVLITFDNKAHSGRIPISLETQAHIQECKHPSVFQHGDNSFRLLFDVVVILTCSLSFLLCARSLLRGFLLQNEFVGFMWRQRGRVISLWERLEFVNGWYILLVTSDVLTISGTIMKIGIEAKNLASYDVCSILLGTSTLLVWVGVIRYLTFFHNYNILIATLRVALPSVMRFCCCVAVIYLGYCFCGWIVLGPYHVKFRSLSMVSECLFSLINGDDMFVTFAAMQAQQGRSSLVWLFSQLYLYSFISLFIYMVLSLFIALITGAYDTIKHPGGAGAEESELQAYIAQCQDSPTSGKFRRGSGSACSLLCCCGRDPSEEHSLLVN"}, "source": "PubChem BioAssay AID624415", "about": "(National Center for Advancing Translational Sciences (NCATS), 2012)", "note": "Several values for one entry are separate records, joined by “and”; a condition that tells them apart may be missing. Equal values may be shown once. Among all 390,000 compounds or so, about 60 (0.02%) were called active. The shares of active, inactive and inconclusive entries below differ from those in the screen. Cut-off read from the data, not from the text of the source: active = activity change below about -50%; inconclusive = between about -30% and that limit; inactive = weaker than that. % is set by controls: 0 for no effect and ±100 for the full control effect."}
{"target": "Mucolipin-1 (Homo sapiens) (UniProt Q9GZU1)", "test": "qHTS for Inhibitors of the Human Mucolipin Transient Receptor Potential 1 (TRPML1);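 note: stimulus is agonist 54-4 at its EC80 concentration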", "conditions": "TRPML1-inducible cells, Ca2+ dye fluorescence, FDSS; hits give low values; inhibition of EC80 agonist-evoked calcium signal", "text": "Mutations of human Mucolipin transient receptor potential 1 (TRPML1) cause type IV mucolipidosis (ML4), a devastating neurodegenerative disease in young children. […] Currently, there is no treatment for ML4. […] Under physiological conditions, TRPMLs regulate membrane trafficking by transducing information about PI(3,5)P2 levels into changes in juxtaorganellar Ca2+, thereby triggering membrane fusion/fission events in the late endocytic pathways (endolysosomal trafficking). In addition, TRPML1 mediates release of Fe2+ from late endosomes and lysosomes, which is essential for cellular iron metabolism. Thus, impaired ion (Ca2+ and Fe2+) homeostasis underlies lysosomal dysfunction and ML4 phenotypes. In ML4 cells, the problem is twofold. First, defective Ca2+-dependent membrane trafficking due to TRPML1-deficiency causes accumulation of lipids and other bio-materials in the lysosome. The second strike comes from the lysosomal iron overload (due to impairment of TRPML1's Fe2+ conductivity), which converts the accumulated materials into the nondegradable (resistant to lysosomal degradation) lipofuscin (also called aging pigment) in the lysosome. Lipofuscin accumulation dramatically compromises the functions of lysosomes.\nNiemann-Pick type C (NPC) disease is another lysosome storage disease (LSD) with severe neurodegeneration during the childhood. Currently, there is no cure for NPC. […] Thus, TRPML1 is likely to be an essential regulator of lysosome ion homeostasis. We specifically hypothesize that stimulating TRPML1's Fe2+/Ca2+ channel activity in the lysosome using synthetic agonists can alleviate neurodegeneration associated with ML4 or NPC.\nTo this end, a high throughput screen was developed in a miniaturized format to screen against the Molecular Libraries Small Molecule Repository (MLSMR) to find small molecules that act either as inhibitors or agonist against the TRPML1 channel.\nNIH Chemical Genomics Center [NCGC]\nNIH Molecular Libraries Probe Centers Network [MLPCN]\nAssay Submitter (PI): Haoxing Xu, University of Michigan Ann Arbor\nTRPML1-DL cells are dissociated from flasks, counted and, brought up to a density of 500,000 cells per mL of media containing a 1X Tet inducer. Using a Multidrop Combi, 3 uL of this cell solution is dispensed to each well of a 1536 TC treated, black, clear bottom hi base plate for a final cell density of 1,500 cells per well. The assay plates are incubated overnight (approximately 16 hours) at 37 degrees C and 5% CO2. Using a Multidrop Combi, 2 uL of ABD Ca8 no wash dye plus quencher is added to each well. The assay plates incubate at room temperature in the dark for 45-90 minutes. The assay plate is read on the FDSS using the following protocol: 10 second baseline read, 23 nL of compounds and controls are added using 1536 pintool, agonist read for 110 seconds, 1 uL EC80 addition (4 uM final 54-4 diluted in media), antagonist read for 110 seconds."}
{"smiles": "CC(NC(=O)/C(C#N)=C/c1ccc(C(=O)O)cc1)c1ccccc1", "note": "(stereo not given)", "activity change, negative = inhibition": "inactive: -10.7%"}
{"smiles": "O=C(CSC(=S)N1CCOCC1)Nc1nc(-c2ccccc2)c(-c2ccccc2)o1", "activity change, negative = inhibition": "inactive: -15.2%"}
{"smiles": "Cc1c(C2=CCN(S(=O)(=O)c3ccc(CC(C)C)cc3)CC2)c2ccccc2n1CC(=O)N1CCCC1", "activity change, negative = inhibition": "inconclusive: -37.1%"}
{"smiles": "COc1ccc(-c2cccc(C3C4C=CCCC4(C)C(=O)N3Cc3ccccc3)c2)cc1", "note": "(stereo not given)", "activity change, negative = inhibition": "inactive: -10.7%"}
{"smiles": "CCN(CC)C1=CC2=CC(=C(C#N)C#N)CCC2CC1", "note": "(stereo not given)", "activity change, negative = inhibition": "inconclusive: -31.6%"}
{"smiles": "OC(c1ccccn1)C1CCN(Cc2nc(C(c3ccccc3)c3ccccc3)no2)CC1", "note": "(stereo not given)", "activity change, negative = inhibition": "inconclusive: -36%"}
{"smiles": "Cc1ccc(C)c(NC(=O)CSc2c3c(nc4ccc(Cl)cc24)CCCC3)c1", "activity change, negative = inhibition": "inactive: 1.47%"}
{"smiles": "COc1ccc(CNC(=O)C(C)Sc2ccc(S(=O)(=O)N3CCOCC3)cn2)cc1", "note": "(stereo not given)", "activity change, negative = inhibition": "inconclusive: -34.4%"}
{"smiles": "CCc1ccc(NC(=S)N(CCOC)C2CCN(C(C)=O)CC2)cc1", "activity change, negative = inhibition": "inconclusive: -32.8%"}
{"smiles": "NC(=O)C1CCN(C(=O)c2cc(-c3ccc(Cl)cc3)nc3ccccc23)CC1", "activity change, negative = inhibition": "inconclusive: -36.9%"}
{"smiles": "N#Cc1cnn(-c2ccccc2)c1NC(=O)CN1CCOCC1", "activity change, negative = inhibition": "inconclusive: -30.1%"}
{"smiles": "COc1ccc2nc(SCC(=O)NC(C)C)[nH]c2c1", "activity change, negative = inhibition": "inactive: -7.37%"}
{"smiles": "CCC1CCCCN1C(=O)CSc1nnc(-c2cccs2)o1", "note": "(stereo not given)", "activity change, negative = inhibition": "inconclusive: -30.6%"}
{"smiles": "CCN(Cc1ccncc1)C(=O)CSc1ccc2ccccc2c1", "activity change, negative = inhibition": "inconclusive: -39.4%"}
{"smiles": "C[C@]12CC[C@@H]3c4cc(O)c(O)cc4CC[C@H]3[C@@H]1CC[C@@H]2O", "activity change, negative = inhibition": "inactive: 11%"}
{"smiles": "CN(C)c1ccc(CNC(=O)CN2C(=O)COc3ccc(S(=O)(=O)N4CCCC4)cc32)cc1", "activity change, negative = inhibition": "inconclusive: -33.1%"}
{"smiles": "CC(=O)c1cccc(NS(=O)(=O)c2ccc(N/C=C\\C(=O)c3ccc(F)cc3)cc2)c1", "activity change, negative = inhibition": "inconclusive: -30.7%"}
{"smiles": "CN(C)CC/C=C1/c2cc(F)ccc2CSc2ccc(F)cc21", "activity change, negative = inhibition": "inactive: 21.2%"}
{"smiles": "COc1ccc(N2CCN(CCCNC(=O)Nc3ccccc3)CC2)cc1", "activity change, negative = inhibition": "inactive: 0.484% and inactive: 15.8%"}
{"smiles": "CCn1cc(C(=O)NCc2ccc(Cl)cc2)c(=O)c2cc(S(=O)(=O)N(C)C3CCCCC3)ccc21", "activity change, negative = inhibition": "inactive: -7.84%"}
{"smiles": "CC(CNC(=O)c1ccc2nc(Cc3ccccc3)oc2c1)c1ccccc1", "note": "(stereo not given)", "activity change, negative = inhibition": "inactive: 54.2%"}
{"smiles": "CC1=CC(=C(C#N)C#N)C=C(C)N1CCC(C)C", "activity change, negative = inhibition": "inconclusive: -40.4%"}
{"smiles": "COc1ccc2c(CSc3nc4nc(C)cc(C)n4n3)cc(=O)oc2c1", "activity change, negative = inhibition": "inconclusive: -35.7%"}
{"smiles": "COC(=O)c1ccc(N=Nc2c(C)[nH]n(-c3ccccc3)c2=O)cc1", "activity change, negative = inhibition": "inconclusive: -40.3%"}
{"smiles": "COc1ccc(C(CNc2ncnc3sc(C)c(C)c23)N(C)C)cc1", "note": "(stereo not given)", "activity change, negative = inhibition": "inconclusive: -31.4%"}
{"smiles": "N#CCCN(C(=O)c1cc2c(s1)-c1ccccc1S(=O)(=O)C2)c1ccccc1", "activity change, negative = inhibition": "inconclusive: -38.8%"}
{"smiles": "C[C@@H](NC(=O)/C(C#N)=C/c1ccc(O)c(O)c1)c1ccccc1", "activity change, negative = inhibition": "inactive: -7.65%"}
{"smiles": "CC1CCCC(NC(=O)CN(C)S(=O)(=O)c2cnc[nH]2)C1C", "note": "(stereo not given)", "activity change, negative = inhibition": "inconclusive: -33.1%"}
{"smiles": "CCOC(=O)CN(C(=O)Cn1nnc2ccccc21)C(C(=O)NCCOC)c1ccccc1C", "note": "(stereo not given)", "activity change, negative = inhibition": "inconclusive: -40.2%"}
{"smiles": "O=C(O)/C(=C\\c1ccc(Cl)cc1)c1ccc(F)cc1", "activity change, negative = inhibition": "inconclusive: -36.8%"}
{"smiles": "COc1ccc2cc([C@@H](C)C(=O)O)ccc2c1", "activity change, negative = inhibition": "inconclusive: -31%"}
{"smiles": "CN(C)S(=O)(=O)Nc1ccccc1F", "activity change, negative = inhibition": "inconclusive: -30.4%"}
{"smiles": "C/C(=N\\Nc1ccc([N+](=O)[O-])cc1)c1ccc(N)cc1", "activity change, negative = inhibition": "inactive: -10.6%"}
{"smiles": "Cc1cccc(C)c1N(CC(=O)N1CCN(C)CC1)S(C)(=O)=O", "activity change, negative = inhibition": "inactive: -3.59%"}
{"smiles": "CCc1ccc(CN2CCc3nc(N4CCN(CC)CC4)ncc3C2)cc1", "activity change, negative = inhibition": "inactive: 18.3%"}
{"smiles": "CCS(=O)(=O)N1CCC(C(=O)NCCc2ccc(OC)c(OC)c2)CC1", "activity change, negative = inhibition": "inactive: -10.3%"}
{"smiles": "S=C(NC1CCCCC1)NC1CC2CCC(C1)N2Cc1ccccc1", "note": "(stereo not given)", "activity change, negative = inhibition": "inactive: 20.5%"}
{"smiles": "Cc1cc2n(n1)C(c1ccccc1Cl)Nc1ccccc1-2", "note": "(stereo not given)", "activity change, negative = inhibition": "inactive: 4.78%"}
{"smiles": "CS(=O)(=O)N1CCc2cc(C(=O)Nc3ccc(Br)cc3)ccc21", "activity change, negative = inhibition": "inconclusive: -30.2%"}
{"smiles": "CC1CCN(C(=O)COC(=O)c2cc3ccccc3oc2=O)CC1", "activity change, negative = inhibition": "inconclusive: -34.3%"}
{"smiles": "COc1ccccc1CNC(=O)CCc1c(C)nn(-c2ccc(N3CCCCC3)nn2)c1C", "activity change, negative = inhibition": "inactive: -6.26%"}
{"smiles": "O=C(CCCN1C(=O)C2CC=CCC2C1=O)Nc1cccc(F)c1", "note": "(stereo not given)", "activity change, negative = inhibition": "inconclusive: -32.7%"}
{"smiles": "Cc1ccc(S(=O)(=O)c2c(C)nn(C(C)(C)C)c2OC(=O)C(C)(C)C)cc1", "activity change, negative = inhibition": "inconclusive: -43.9%"}
{"smiles": "CCc1ccc(NC(=O)CSc2ncc(S(=O)(=O)c3cc(C)ccc3C)c(=O)[nH]2)cc1", "activity change, negative = inhibition": "inactive: 13.5%"}
{"smiles": "Cc1cccc(CSc2ccc(-c3cccs3)nn2)c1", "activity change, negative = inhibition": "inconclusive: -36.3%"}
{"smiles": "COC(=O)[C@@H](NC(=O)N1CCN(C(=O)C2COc3ccccc3O2)CC1)C(C)C", "note": "(stereo not given in full)", "activity change, negative = inhibition": "active: -60.1%"}
{"smiles": "COCCC(=O)N1CCC(n2nccc2NC(=O)c2ccccc2C)CC1", "activity change, negative = inhibition": "inconclusive: -30.2%"}
{"smiles": "COc1ccc(NC(=O)CN(C)C(=O)c2cn(-c3ccccc3)nc2-c2cccs2)cc1", "activity change, negative = inhibition": "inactive: 9.24%"}
{"smiles": "CCOc1ccccc1NC(=O)CN(C)S(=O)(=O)c1cnc[nH]1", "activity change, negative = inhibition": "inconclusive: -32.4%"}
{"smiles": "CC(C)C(=O)N1CCN(c2nc3ccc(Cl)cc3s2)CC1", "activity change, negative = inhibition": "inconclusive: -46.2%"}
{"smiles": "CCOC(=O)c1cccc(NC(=O)c2ccc3c(c2)nnn3C2CCCC2)c1", "activity change, negative = inhibition": "inconclusive: -30.7%"}
{"smiles": "O=C1c2ccccc2C(=O)c2[nH]cnc21", "activity change, negative = inhibition": "inconclusive: -30.6%"}
{"smiles": "O=C(CCSCc1cnn(-c2ccccc2)c1-n1cccc1)NCc1ccccc1F", "activity change, negative = inhibition": "inconclusive: -38%"}
{"smiles": "COc1ccccc1NC(=O)C(=O)c1cc(C)n(-c2ccccc2F)c1C", "activity change, negative = inhibition": "inconclusive: -34.9%"}
{"smiles": "CCOC(=O)c1cc([N+](=O)[O-])sc1NC(=O)c1ccc(S(=O)(=O)N2CC3(C)CC2CC(C)(C)C3)cc1", "note": "(stereo not given)", "activity change, negative = inhibition": "inconclusive: -42.1%"}
